From publication doi:10.1101/2022.04.21.489075
Results are given in words; binding and its absence hold for the method and conditions named. In cells and extracts the contact can be indirect. Some entries that bind do so weakly or less than the wild type.

Amino acid sequences for entries named in this document (tags omitted). Residues count along the entry.
UniProt P43220, residues 24-463: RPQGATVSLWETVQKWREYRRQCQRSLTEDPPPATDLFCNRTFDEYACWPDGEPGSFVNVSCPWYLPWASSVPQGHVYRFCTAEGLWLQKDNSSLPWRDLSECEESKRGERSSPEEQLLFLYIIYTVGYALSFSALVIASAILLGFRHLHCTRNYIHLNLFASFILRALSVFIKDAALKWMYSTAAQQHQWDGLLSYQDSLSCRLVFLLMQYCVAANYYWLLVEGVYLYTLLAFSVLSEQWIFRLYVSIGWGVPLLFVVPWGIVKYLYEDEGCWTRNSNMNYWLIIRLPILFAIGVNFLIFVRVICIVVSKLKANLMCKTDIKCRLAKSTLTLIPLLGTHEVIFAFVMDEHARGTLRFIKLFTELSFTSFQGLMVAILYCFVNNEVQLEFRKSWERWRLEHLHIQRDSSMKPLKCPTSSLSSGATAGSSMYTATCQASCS
UniProt P46934: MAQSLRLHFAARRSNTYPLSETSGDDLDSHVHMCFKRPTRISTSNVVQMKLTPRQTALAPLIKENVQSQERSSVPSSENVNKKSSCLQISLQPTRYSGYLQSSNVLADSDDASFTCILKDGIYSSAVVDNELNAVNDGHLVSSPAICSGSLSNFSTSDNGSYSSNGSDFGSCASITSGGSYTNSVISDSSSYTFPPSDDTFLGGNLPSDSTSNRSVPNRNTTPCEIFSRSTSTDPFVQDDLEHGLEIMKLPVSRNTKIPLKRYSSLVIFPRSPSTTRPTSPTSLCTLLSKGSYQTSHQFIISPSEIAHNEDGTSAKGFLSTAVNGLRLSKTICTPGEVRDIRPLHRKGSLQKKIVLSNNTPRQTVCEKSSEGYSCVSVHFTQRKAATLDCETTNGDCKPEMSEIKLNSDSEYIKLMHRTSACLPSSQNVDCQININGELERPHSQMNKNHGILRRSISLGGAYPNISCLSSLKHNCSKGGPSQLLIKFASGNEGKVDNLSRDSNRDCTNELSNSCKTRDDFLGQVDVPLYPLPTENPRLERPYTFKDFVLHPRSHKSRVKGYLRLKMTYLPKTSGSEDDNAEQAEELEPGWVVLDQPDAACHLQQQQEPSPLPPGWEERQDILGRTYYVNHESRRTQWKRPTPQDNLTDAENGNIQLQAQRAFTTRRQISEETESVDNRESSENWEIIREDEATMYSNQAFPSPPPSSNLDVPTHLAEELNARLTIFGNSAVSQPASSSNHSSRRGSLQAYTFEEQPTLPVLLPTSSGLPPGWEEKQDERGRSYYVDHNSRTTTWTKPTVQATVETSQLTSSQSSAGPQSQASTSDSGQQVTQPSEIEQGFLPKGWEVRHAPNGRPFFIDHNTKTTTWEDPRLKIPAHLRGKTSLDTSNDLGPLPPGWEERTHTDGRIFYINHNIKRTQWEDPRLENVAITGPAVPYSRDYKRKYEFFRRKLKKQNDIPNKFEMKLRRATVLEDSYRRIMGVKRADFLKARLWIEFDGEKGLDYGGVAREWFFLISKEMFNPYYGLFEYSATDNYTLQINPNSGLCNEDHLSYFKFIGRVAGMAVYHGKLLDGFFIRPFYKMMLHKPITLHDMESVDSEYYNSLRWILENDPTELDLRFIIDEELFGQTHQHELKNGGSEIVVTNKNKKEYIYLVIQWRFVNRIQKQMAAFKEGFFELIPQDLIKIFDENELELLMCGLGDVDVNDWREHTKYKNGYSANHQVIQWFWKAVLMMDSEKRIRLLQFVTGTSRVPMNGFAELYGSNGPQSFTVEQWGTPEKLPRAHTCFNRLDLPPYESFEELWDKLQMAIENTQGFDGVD

Molecular target: SNAP/FLAG-tagged human GLP-1R (human) (UniProt P43220)
Assay: co-IP

- binding: binds
Substance: HA-tagged NEDD4 (from UniProt P46934 1-1319) (enzyme)
